Source: PMC10547799

Target: C-terminal fragment of PLK1 containing a PBD domain, Flag-tagged (human)
Test: co-IP; HEK293T co-transfected with UHRF1-His and Flag-tagged PLK1 (full length or truncated); IP with anti-Flag or anti-His; RIPA extracts, antibody 4 °C 12 h, protein A/G magnetic beads; western blot

- binding: binds
B1: UHRF1-His (protein, UniProt Q96T88 1-793)
chain: MWIQVRTMDGRQTHTVDSLSRLTKVEELRRKIQELFHVEPGLQRLFYRGKQMEDGHTLFDYEVRLNDTIQLLVRQSLVLPHSTKERDSELSDTDSGCCLGQSESDKSSTHGEAAAETDSRPADEDMWDETELGLYKVNEYVDARDTNMGAWFEAQVVRVTRKAPSRDEPCSSTSRPALEEDVIYHVKYDDYPENGVVQMNSRDVRARARTIIKWQDLEVGQVVMLNYNPDNPKERGFWYDAEISRKRETRTARELYANVVLGDDSLNDCRIIFVDEVFKIERPGEGSPMVDNPMRRKSGPSCKHCKDDVNRLCRVCACHLCGGRQDPDKQLMCDECDMAFHIYCLDPPLSSVPSEDEWYCPECRNDASEVVLAGERLRESKKKAKMASATSSSQRDWGKGMACVGRTKECTIVPSNHYGPIPGIPVGTMWRFRVQVSESGVHRPHVAGIHGRSNDGAYSLVLAGGYEDDVDHGNFFTYTGSGGRDLSGNKRTAEQSCDQKLTNTNRALALNCFAPINDQEGAEAKDWRSGKPVRVVRNVKGGKNSKYAPAEGNRYDGIYKVVKYWPEKGKSGFLVWRYLLRRDDDEPGPWTKEGKDRIKKLGLTMQYPEGYLEALANREREKENSKREEEEQQEGGFASPRTGKGKWKRKSAGGGPSRAGSPRRTSKKTKVEPYSLTAQQSSLIREDKSNAKLWNEVLASLKDRPASGSPFQLFLSKVEETFQCICCQELVFRPITTVCQHNVCKDCLDRSFRAQVFSCPACRYDLGRSYAMQVNQPLQTVLNQLFPGYGNGR

No constants are given. Whether binding was seen depends on the method and setting. In cells and extracts the contact can be indirect. Binding can be weak; no strength is given. Sequences can lack the tags named with a protein.
